According to PMC7937953:
Results are given in words; binding and its absence hold for the method and conditions named. In cells and extracts the contact can be indirect. Some entries that bind do so weakly or less than the wild type. For some of these results: Sequences can lack the tags named with a protein. Values belong to the substance of their own block, whether it stands above or below them.

Protein sequences, listed by entry. Tags and fused reporters are not part of them.
UniProt Q12929: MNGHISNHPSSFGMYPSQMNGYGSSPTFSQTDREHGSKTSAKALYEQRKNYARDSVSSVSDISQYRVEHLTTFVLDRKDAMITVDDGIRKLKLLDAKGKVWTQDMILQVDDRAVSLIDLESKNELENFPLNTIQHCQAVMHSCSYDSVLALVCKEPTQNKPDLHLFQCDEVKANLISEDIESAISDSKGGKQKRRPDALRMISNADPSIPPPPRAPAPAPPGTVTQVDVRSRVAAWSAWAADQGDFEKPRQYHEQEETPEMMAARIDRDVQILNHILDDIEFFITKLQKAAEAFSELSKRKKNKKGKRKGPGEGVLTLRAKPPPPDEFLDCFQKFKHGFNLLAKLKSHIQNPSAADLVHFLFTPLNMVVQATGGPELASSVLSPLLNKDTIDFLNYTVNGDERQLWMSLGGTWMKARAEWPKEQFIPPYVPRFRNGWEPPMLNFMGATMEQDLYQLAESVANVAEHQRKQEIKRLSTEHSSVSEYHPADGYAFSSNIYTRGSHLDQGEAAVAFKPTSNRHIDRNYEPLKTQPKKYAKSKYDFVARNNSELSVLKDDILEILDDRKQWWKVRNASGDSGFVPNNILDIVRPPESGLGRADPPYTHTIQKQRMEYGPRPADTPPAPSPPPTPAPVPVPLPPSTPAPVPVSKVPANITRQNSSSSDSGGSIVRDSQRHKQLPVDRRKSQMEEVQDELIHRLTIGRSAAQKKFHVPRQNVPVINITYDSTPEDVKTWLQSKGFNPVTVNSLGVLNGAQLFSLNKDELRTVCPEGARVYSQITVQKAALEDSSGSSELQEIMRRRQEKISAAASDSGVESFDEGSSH

Tests used:
[1] = biological target: endogenous EPS8 in U251 cells (human (endogenous in U251)) (UniProt Q12929); assay: co-IP; endogenous proteins in U251 cells; lysates immunoprecipitated with anti-EPS8 or control IgG; MLK3 detected by immunoblot
[2] = biological target: T1, GST-fused MLK3 (632–847 aa) (human) (UniProt Q16584); assay: pull-down; purified GST-fused MLK3 segments on beads incubated with lysates of pcDNA3.1-EPS8-transfected HEK293 cells, 2 h at 4°C; immunoblot; only the target purified
T1 sequence: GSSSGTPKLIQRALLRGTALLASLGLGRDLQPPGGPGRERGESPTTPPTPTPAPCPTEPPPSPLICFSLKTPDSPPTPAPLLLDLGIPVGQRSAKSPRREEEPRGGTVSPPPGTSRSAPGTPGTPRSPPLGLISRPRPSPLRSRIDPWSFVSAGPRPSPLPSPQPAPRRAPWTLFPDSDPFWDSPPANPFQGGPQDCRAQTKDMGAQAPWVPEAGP

[3] = biological target: T2, GST-fused MLK3 (1–104 aa) (human) (UniProt Q16584); assay: as above
T2 sequence: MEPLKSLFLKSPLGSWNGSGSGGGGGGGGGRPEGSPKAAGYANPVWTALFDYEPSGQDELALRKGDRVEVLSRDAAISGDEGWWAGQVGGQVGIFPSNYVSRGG

[4] = biological target: Myc-MLK3 (mixed lineage kinase 3), overexpressed in U251 cells (human) (UniProt Q16584); assay: co-IP; U251 cells co-transfected with pcDNA3.1-Myc-MLK3 and pcDNA3.1-His-EPS8 for 24 h; lysates immunoprecipitated with anti-Myc or control IgG; EPS8 detected by immunoblot

binding [1]: binds
Substance: endogenous MLK3 in U251 cells (from UniProt Q16584 1-847)

binding [2]: binds | binding [3]: binds
Substance: EPS8 expressed in HEK293 cells (pcDNA3.1-EPS8) (from UniProt Q12929 1-822)

binding [4]: binds
Substance: His-EPS8 (epidermal growth factor receptor kinase substrate 8), overexpressed in U251 cells (from UniProt Q12929 1-822)
